Results of single-concentration screens

Source: ChEMBL document CHEMBL3988442, “University of Dundee, Small-Polar-MMV Screening Library” (2021).

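Whole-cell growth test on Mycobacterium tuberculosis, read after 3 days in glucose-containing 7H9 medium; the read-out is not stated. Tested at 500 µM. Direction is inferred from retests: higher values go with more growth inhibition. About 18,000 compounds were tested under these conditions; 7.9% (about 1,400) showed 50% or more at least once.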

Values are the deposited “Percent Effect”, in %. The controls that fix the scale are not given in the record; negative values are as filed. This is an unselected part of the compounds tested.

Compound | effect
CC(C)c1ccnc(N2CCOC(CCN)C2)n1 (configuration not stated) | 34.36
CCN1CCN(c2ccc(NC(C)=O)cc2Cl)CC1 | 10.7
CC(NS(C)(=O)=O)C(=O)N(C)CCOc1ccccc1 (configuration not stated) | 40.42
CCS(=O)(=O)Nc1ccc(C(=O)NC2CC2)cc1 | 16.5
CS(=O)(=O)NC1CCN(CCn2cc(Cl)cn2)CC1 | 2.283
Cc1ccc(C(=O)Nc2n[nH]c(C3CCC3)n2)c(=O)[nH]1 | -4.666
CCn1cc(C(=O)NC(C)c2nc(C3CC3)no2)cn1 (configuration not stated) | 29.85
Cc1ccc(C(=O)NCC(=O)NC(C)(C)C)c(O)c1 | 50.03
O=C(CC1COCCN1)NCc1ccc2c(c1)OCO2 (configuration not stated) | 22.48
COc1ccc(CNC(=O)CCCc2cccs2)cn1 | -11.32
O=C(c1cccs1)N1CCN(C(=O)C2CCCO2)CC1 (configuration not stated) | 0.9962
CCNC1CCCc2cccnc21 (configuration not stated) | -1.045
Fc1ccc(CSc2nnnn2CC2CCCO2)cc1 (configuration not stated) | 89.4
COCCNC(=O)CCNS(=O)(=O)c1ccccc1 | 16.43
CN1C(=O)[C@H]2CN(Cc3cccc(Cl)c3F)C[C@H]2C1=O | 31.54
CCC1CN(S(=O)(=O)c2cccc(C#N)c2)CCO1 (configuration not stated) | -0.6558
CN(C)c1ncc(CN)n1C | 4.421
Cc1nc(C)c(C(=O)NC[C@@H]2C[C@H](F)CN2)s1 | 5.655
NC(=O)C[C@@H](N)c1ccccc1Cl | 1.089
COCC(C)(NC(=O)[C@H]1CCC(=O)N1)c1ccccc1 (some centres not stated) | 6.68
O=C(c1cccc2cn[nH]c12)N1CCCC1CO (configuration not stated) | 69.74
CC1=NOC(CNS(=O)(=O)c2cccc(C)c2)C1 (configuration not stated) | 32.79
O=C1CCNc2cnccc2N1 | 10.44
COc1ccc(CN2CCCC(N(C)C)CC2)cn1 (configuration not stated) | 16.09
CC(N)C1(N2CCOCC2)CCCC1 (configuration not stated) | -4.01
Cc1c(C(=O)NC(C)(CO)CO)cnn1C1CCCC1 | -6.661
CCn1ncnc1C(C)NC(=O)c1cc(Cl)ccc1F (configuration not stated) | 20.84
OCCOc1ccc(CNCCn2cccn2)c(Br)c1 | 43.37
NCC(=O)Nc1ccccc1-n1cncn1 | 3.477
Cc1cc(C[S+]([O-])CC(=O)NC2CCCC2)no1 (configuration not stated) | 21.07
O=C1c2ccc(F)cc2C(=O)N1c1ccccc1F | -2.979
CCOc1ccc2c(c1)C=C(C(=O)NC)CO2 | 61.77
CC1COCCN1Cn1nnc2ccccc2c1=O (configuration not stated) | -1.351
COCCn1cnnc1CN(C)Cc1nc(C)no1 | 1.277
CNC(=O)Cc1ccc(-c2ccc(F)c(CO)c2)cc1 | 45.33
CNS(=O)(=O)c1ccc(C(=O)N(C)C(C)C(C)(C)C)o1 (configuration not stated) | 5.315
Cc1cc(NC(=O)CSCC(=O)N2CCC2)no1 | 10
CC(CCOc1ccccc1)C(=O)NC1(C#N)CC1 (configuration not stated) | 16.17
CCNC(=O)CNc1nc(-c2ccccc2)cs1 | 47.47
Cc1ccc(C(N)=O)cc1NCC(C)C | 51.9
C1CN(C2CNC2)CCO1 | 0.9005
CC(C)C(=O)NCc1ccc(F)cc1 | 14.09
O=S(=O)(c1ccco1)N1CCOCc2ccccc21 | 62.91
O=C(NCc1ccncc1)C1COCCO1 (configuration not stated) | -3.455
CCC1(C(=O)NCCCNC)CCCC1 | 8.527
COCC(=O)Nc1ccc(-n2cccn2)nc1 | 20.19
Nc1csc(-c2ccncc2)n1 | -24.26
CN(C)c1ccc(C(=O)NCc2ccccc2F)cn1 | 24.03
N#CCC(=O)C1CCCC1 | -3.78
CSc1nc2ccccc2n1CC(N)=O | -9.031
CCc1nccn1CCCNC(=O)CN1CCOC1=O | -3.701
CC(C)S(=O)(=O)CC(=O)N1CCc2ccc(Br)cc21 | 1.103
CN(CCN1CCOCC1)C1CCNCC1 | 0.4182
O=C(O)c1cccnc1N1CCC2(CCCNC2)C1 (configuration not stated) | -13.77
CCCc1nnc(NCCc2ccnn2C)o1 | 13.11
COc1cc(C(C)O)cc(OC)c1O (configuration not stated) | 0.9197
CN1CCCN(C(=O)c2ccc(F)cc2)CC1 | -4.381

7 of the entries, repeated:

- CCS(=O)(=O)Nc1ccc(C(=O)NC2CC2)cc1 | 16.5%
- Cc1ccc(C(N)=O)cc1NCC(C)C | 51.9%
- CC(C)c1ccnc(N2CCOC(CCN)C2)n1 (configuration not stated) | 34.36%
- CCOc1ccc2c(c1)C=C(C(=O)NC)CO2 | 61.77%
- CC1=NOC(CNS(=O)(=O)c2cccc(C)c2)C1 (configuration not stated) | 32.79%
- CCCc1nnc(NCCc2ccnn2C)o1 | 13.11%
- COCCn1cnnc1CN(C)Cc1nc(C)no1 | 1.277%